From PubChem BioAssay AID485353 (National Center for Advancing Translational Sciences (NCATS), 2010)
Out of some 330,000 compounds screened, about 610 (0.18%) were called active. Inconclusive results, whose numbers are uncertain, are shown with a selection of clear calls. The call rests on the fitted dose curve. Potencies of inconclusive entries are doubtful fits and often do not repeat.

test: qHTS of Yeast-based Assay for SARS-CoV PLP; further: nearly all actives have a fitted effect of over 55% in size; details: S. cerevisiae expressing SARS-CoV PLpro; Potency: growth rescue; series mostly up to 32.9 µM
Potency means the concentration at half of the fitted maximal effect.

Row | SMILES | Potency
1 | CCCCNC(=O)O/N=C(\N)CS(=O)(=O)C(C)(C)C | inactive
2 | C[C@H](CO)N1C[C@H](C)[C@@H](CN(C)Cc2ccc(-c3ccccc3)cc2)Oc2c(NC(=O)Nc3ccc4c(c3)OCO4)cccc2C1=O | active: 11.2 µM
3 | COC(=O)C1CCN(c2cc(=O)n(-c3ccc(OC)cc3)c(=O)[nH]2)CC1 | inactive
4 | CCNC(=O)CON=C1c2ccccc2-c2ccccc21 | inconclusive: 20 µM [activator, single point]
5 | O=C(COC(=O)/C=C/c1ccc(Cl)cc1)Nc1ccc2c(c1)OCCO2 | inconclusive: 22.4 µM [activator, single point]
6 | CCN1CCN(c2ccc(S(=O)(=O)N3CCOCC3)cc2NC(=O)/C=C/c2ccc([N+](=O)[O-])cc2)CC1 | inactive
7 | Cc1ccc(C(=O)CC(=O)COc2ccc(Cl)cc2C)cc1 | inconclusive: 20 µM [activator, single point]
8 | CCCC(=O)N1CCC(CCC(=O)NC2CC2)CC1 | inconclusive: 3.98 µM [activator, partial curve]
9 | CCCNC(=O)N(CCOC)CC1CCCN(C2Cc3ccccc3C2)C1 (stereo not given) | inconclusive: 0.891 µM [activator, full curve]
10 | O=C(c1cccs1)N(CC1CCCO1)c1nc(-c2ccccc2)cs1 (stereo not given) | inconclusive: 4.47 µM [activator, single point]
11 | Nc1ccc(-c2nc3c(ccc4ccccc43)[nH]2)cc1 | inconclusive: 2.51 µM [activator, single point]
12 | O=C(CCc1nnc2ccc(NCc3ccccc3)nn12)NC1CCCC1 | inconclusive: 22.4 µM [activator, single point]
13 | COc1ccc(/C=C/C(=O)NCc2cn(C)nc2C)cc1COc1ccc(Br)cc1 | inconclusive: 20 µM [activator, single point]
14 | O=C1OCCC1Sc1nnc(-c2cccs2)n1Cc1ccccc1 (stereo not given) | inconclusive: 3.98 µM [activator, single point]
15 | CC(=O)c1cccc(NC(=O)CSc2ccc(-c3ccccn3)nn2)c1 | inconclusive: 20 µM [activator, single point]
16 | COc1ccccc1NC(=S)N(Cc1cccs1)C1CCCC1 | inactive
17 | O=C(NCc1ccccn1)c1ccc(Cl)c(S(=O)(=O)Nc2ccccc2C(=O)NCc2ccccn2)c1 | inactive
18 | C=CCc1cccc(/C=N/NC(=O)C(C)Nc2ccc(C)cc2)c1O (stereo not given) | inconclusive: 14.1 µM [activator, single point]
19 | O=C(c1ccc2[nH]c3c(c2c1)CCCC3)N1CCN(c2ccc(F)cc2)CC1 | inactive
20 | O=C(CCNS(=O)(=O)c1ccccc1)N1CCC(Cc2ccccc2)CC1 | inconclusive: 3.98 µM [activator, single point]
21 | Cc1ccc(NC(=O)c2cccc(Oc3ccc([N+](=O)[O-])cc3)c2)c(C(=O)O)c1 | inconclusive: 2.82 µM [activator, single point]
22 | COc1ccc(NC(=O)CSc2nnc(Cn3cnc4ccccc43)o2)cc1 | inactive
23 | CC1(C)CC(=O)C(=Cc2cn(CCC#N)nc2-c2ccc(F)cc2)C(=O)C1 | inconclusive: 12.6 µM [activator, partial curve]
24 | Oc1ccc(CNc2cccc(C(F)(F)F)c2)c2cccnc12 | inconclusive: 2.24 µM [activator, partial curve]

Row | SMILES | Potency
25 | COCc1ccc(CN2CCCC(C(=O)Nc3ccc(-c4cccc(OC)c4)cc3)C2)o1 (stereo not given) | inconclusive: 3.98 µM [activator, single point]
26 | CCOc1ccc(Br)cc1S(=O)(=O)NCc1ccc(S(N)(=O)=O)cc1 | inactive
27 | CN(CCc1ccccn1)C(=O)CCc1nnc(CCCc2ccccc2)o1 | inactive
28 | NC(=O)Cn1c(=O)n(Cc2ccco2)c(=O)c2c3c(sc21)CCCCC3 | inconclusive: 20 µM [activator, single point]
29 | Cc1ccc(SCC(=O)NCCc2ccccc2)cc1 | inactive
30 | CN1CCN(Cc2cc(=O)oc3ccc(Cl)cc23)CC1 | inactive
31 | O=C(NC1CCCCCC1)C1c2ccccc2C(=O)N1CCCN1CCOCC1 (stereo not given) | inactive
32 | COc1cc(CNCCN2CCOCC2)ccc1OCc1ccccc1Cl | inactive
33 | COc1cccc(/C=N/NC(=O)C(C)n2nc(C)c([N+](=O)[O-])c2C)c1O (stereo not given) | active: 11.2 µM
34 | O=S(=O)(/N=C(/c1ccccc1)N1CCCCC1)c1ccccc1 | inactive
35 | CC(=O)c1ccc2c(c1)C1C(Cl)C(Sc3ccccc3[N+](=O)[O-])CC1C(c1ccccc1[N+](=O)[O-])N2 (stereo not given) | inactive
36 | CN(C)CCC=C1c2ccccc2CCc2ccccc21 | inactive
37 | COc1ccc(S(=O)(=O)NCCNC(=O)N2CCOCC2)cc1 | inconclusive: 22.4 µM [activator, single point]
38 | COc1ccc(N[C@@H]2CCN3C(=O)c4ccccc4[C@@H]3C[C@H]2O)cc1 | inconclusive: 4.47 µM [activator, single point]
39 | Cc1ccc(S(=O)(=O)CC2CSc3nc(N)cc(=O)n32)cc1 (stereo not given) | inconclusive: 3.98 µM [activator, single point]
40 | CCOc1ccc(C2C(C(=O)c3ccco3)=C(O)C(=O)N2CCCn2ccnc2)cc1 (stereo not given) | inconclusive: 4.47 µM [activator, single point]
41 | O=C1CCCN1c1ccc(S(=O)(=O)Oc2ccc(Cl)cc2)cc1[N+](=O)[O-] | inactive
42 | COc1cccc(CNC(=S)Nc2cccc(Cl)c2C)c1 | inconclusive: 3.98 µM [activator, single point]
43 | O=C(NC(=S)Nc1ccc2c(c1)OCCO2)c1cccc2ccccc12 | inconclusive: 20 µM [activator, single point]
44 | CCc1nc(N2CCN(C(C)=O)CC2)c2c3c(sc2n1)CC(C(C)(C)C)CC3 (stereo not given) | inconclusive: 3.16 µM [activator, single point]
45 | COc1cc(C(=O)N2CCC(NC(=O)C(Cc3ccccc3C)NC(C)=O)CC2)cc(OC)c1OC (stereo not given) | inconclusive: 20 µM [activator, single point]
46 | Fc1ccc(-c2nn3c(C4COc5ccccc5O4)nnc3s2)cc1 (stereo not given) | inconclusive: 20 µM [activator, single point]
47 | CC(=O)Nc1ccc(S(=O)(=O)N(C)CC(=O)OCC(=O)Nc2ccc3c(c2)OCO3)cc1 | inactive
48 | CN(C)S(=O)(=O)c1ccc(N2CCCC2)c(C(=O)Nc2ccc(F)cc2F)c1 | inactive

Row | SMILES | Potency
49 | O=S(=O)(Nc1ncn[nH]1)c1ccc(Cl)cc1 | inactive
50 | Cc1cc(C)c2nc(NNC(=O)c3ccc(S(=O)(=O)N4CCCCC4)cc3)sc2c1 | inconclusive: 3.98 µM [activator, full curve]
51 | CC1(C)CC(NC(=O)C2CCN(S(=O)(=O)c3ccc(F)cc3)CC2)CC(C)(C)N1 | inconclusive: 22.4 µM [activator, single point]
52 | Cc1ccc2c(c1)C=CC(C#N)N2C(=O)c1ccccc1 (stereo not given) | active: 11.2 µM
53 | O=C(N/N=C/c1ccccn1)c1ccc(Br)cc1 | inconclusive: 20 µM [activator, single point]
54 | Cc1ccc(S(=O)(=O)N2CCOCC2)cc1NC(=O)COC(=O)c1ccc(OCc2c(C)noc2C)cc1 | inconclusive: 3.98 µM [activator, partial curve]
55 | O=C(NCc1ccccn1)c1coc(=O)c(Br)c1 | inconclusive: 11.2 µM [activator, single point]
56 | CCCN1C(=O)c2ccc(C(=O)Nc3ccccc3C(=O)O)cc2C1=O | inactive
57 | CC(=O)Nc1ccc(NC(=O)c2ccccc2Sc2ccc([N+](=O)[O-])cc2Cl)cc1 | inconclusive: 0.316 µM [activator, partial curve, poor fit]
58 | COc1cc(/C=C2/C(=N)N3N=C(CC(=O)N4CCOCC4)SC3=NC2=O)ccc1OCc1ccccc1 | inconclusive: 1 µM [activator, partial curve]
59 | CCOC(=O)N1[C@@H]2C=C(C)[C@@H]2[C@@H]2[C@@H](C)C(=O)N21 | inconclusive: 11.2 µM [activator, single point]
60 | NNC1=N[C@H]2CS(=O)(=O)C[C@H]2S1 | inconclusive: 10 µM [activator, partial curve, poor fit]
61 | CCOC(=O)CNC(=O)Cn1cnc2sc(C)c(S(=O)(=O)N3CCC(C)CC3)c2c1=O | inconclusive: 6.31 µM [activator, partial curve]
62 | Cc1onc(-c2c(Cl)cccc2Cl)c1C(=O)N/N=C(\N)COc1ccc(Cl)cc1 | inconclusive: 15.8 µM [activator, partial curve, poor fit]
63 | O=C(COC(=O)c1ccco1)NCc1ccc(Cl)cc1Cl | inactive
64 | Cc1nn(-c2ccccc2)c(C)c1/C=N/NC(=O)CSc1nnc(SCc2ccccc2Cl)s1 | inconclusive: 0.355 µM [activator, partial curve, poor fit]
65 | CC(=O)c1ccc(NC(=O)/C(C#N)=C/c2ccncc2)cc1 | inconclusive: 20 µM [activator, single point]
66 | O=C(C(=O)N1CCN(c2ccccc2)CC1)c1cn(CC(=O)N2CCCCCC2)c2ccccc12 | inconclusive: 20 µM [activator, single point]
67 | COC(=O)c1ccccc1NC(=O)c1ccc(COc2ccc(C)c(C)c2)o1 | inactive
68 | CCc1ccccc1NC(=O)CN(C)C(=O)CSc1nn(-c2ccccc2)c(=S)s1 | inconclusive: 5.01 µM [activator, full curve]
69 | CCn1nnnc1SCC(=O)Nc1cc(C)on1 | inconclusive: 14.1 µM [activator, partial curve]
70 | O=C(N/N=C/c1ccc(O)cc1O)/C(=C/c1ccccc1)CCO | inconclusive: 12.6 µM [activator, single point]
